Patent publication US20160130347A1
No constants are given. Whether binding was seen depends on the method and setting. Some entries that bind do so weakly or less than the wild type.

Amino acid sequences for entries named in this document (tags omitted). Residues count along the entry.
UniProt Q6UVK1, residues 1587-2221: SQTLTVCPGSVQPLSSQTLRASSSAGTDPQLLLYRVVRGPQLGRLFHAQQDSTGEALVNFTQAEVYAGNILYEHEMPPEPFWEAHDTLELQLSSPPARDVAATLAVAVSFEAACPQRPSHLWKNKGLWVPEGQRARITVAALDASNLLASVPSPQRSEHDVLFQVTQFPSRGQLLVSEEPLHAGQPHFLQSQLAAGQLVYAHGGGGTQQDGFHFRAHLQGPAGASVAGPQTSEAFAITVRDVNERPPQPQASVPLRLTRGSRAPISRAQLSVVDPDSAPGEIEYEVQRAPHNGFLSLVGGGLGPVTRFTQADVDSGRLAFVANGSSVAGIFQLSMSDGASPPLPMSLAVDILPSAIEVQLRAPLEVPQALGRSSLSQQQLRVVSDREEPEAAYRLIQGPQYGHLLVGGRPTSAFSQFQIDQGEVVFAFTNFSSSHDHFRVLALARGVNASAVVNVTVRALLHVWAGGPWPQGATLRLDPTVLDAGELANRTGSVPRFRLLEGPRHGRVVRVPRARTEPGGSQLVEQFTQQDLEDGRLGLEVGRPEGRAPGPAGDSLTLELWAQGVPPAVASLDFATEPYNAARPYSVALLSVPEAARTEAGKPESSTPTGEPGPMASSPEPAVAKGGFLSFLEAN

B1: M4-3(C1)/ML2(G3) IgG (antibody, V domains shown)
VH: QVQLQESGPGLVKPSQTLSLTCTVSGGSITSGYYWNWIRQHPGKGLEWIGYITFDGSNNYNPSLKSRVTISRDTSKNQFSLKLSSVTAADTAVYYCADFDYWGQGTLVTVSS
VL: DIQMTQSPSSLSASVGDRVTITCRASQGIRNYLNWYQQKPGKAPKLLIYYTSSLHSGVPSRFSGSGSGTDYTLTISSLQPEDFATYYCQQYSALPWTFGQGTKVEIKR
B2: M4-3(C1)/ML2(E10) IgG (antibody, V domains shown)
VH: QVQLQESGPGLVKPSQTLSLTCTVSGGSITSGYYWNWIRQHPGKGLEWIGYITFDGSNNYNPSLKSRVTISRDTSKNQFSLKLSSVTAADTAVYYCADFDYWGQGTLVTVSS
VL: DIQMTQSPSSLSASVGDRVTITCRASYGIRGYLNWYQQKPGKAPKLLIYYTSSLHSGVPSRFSGSGSGTDFTLTISSLQPEDFATYHCQQYSKLPWTFGQGTKVEIK
B3: M4-3(C1)/ML2(C5) IgG (antibody, V domains shown)
VH: QVQLQESGPGLVKPSQTLSLTCTVSGGSITSGYYWNWIRQHPGKGLEWIGYITFDGSNNYNPSLKSRVTISRDTSKNQFSLKLSSVTAADTAVYYCADFDYWGQGTLVTVSS
VL: DIQMTQSPSSLSASVGDRVTITCRASRGIREYLNWYQQKPGKAPKLLIYYTGSLHSGVPSRFSGSGSGTDFTLTISSLQPEDFATYYCQQYSELPWTFGQGTKVEIK

Target: human MCSP(D3 domain)-avi-his (human) (UniProt Q6UVK1)
Assay: SPR Biacore T200

| Binder | binding |
| --- | --- |
| B1 | binds |
| B2 | binds |
| B3 | binds |
